Results published in PubChem BioAssay (NCATS).
The inconclusive results got no clear call from the source; some entries with a clear call stand among them for comparison. For part of these data: Potencies of inconclusive entries are doubtful fits and often do not repeat. For part of these data: “Side channel” marks fits to a control or component signal instead of the main read-out. The source made the active and inactive calls. Unless noted, calls follow the shape of the dose curve; as a rule, active = well fitted curve in the direction sought with a large enough effect; inconclusive = small, poorly fitted or top-dose-only effect, or another doubt; inactive = no such curve, though single readings can be large; an effect the other way counts as inactive or inconclusive.

Amino acid sequences for entries named in this document (tags omitted). A change or cut given only in a name is not applied to a line headed by its entry.
UniProt P11473: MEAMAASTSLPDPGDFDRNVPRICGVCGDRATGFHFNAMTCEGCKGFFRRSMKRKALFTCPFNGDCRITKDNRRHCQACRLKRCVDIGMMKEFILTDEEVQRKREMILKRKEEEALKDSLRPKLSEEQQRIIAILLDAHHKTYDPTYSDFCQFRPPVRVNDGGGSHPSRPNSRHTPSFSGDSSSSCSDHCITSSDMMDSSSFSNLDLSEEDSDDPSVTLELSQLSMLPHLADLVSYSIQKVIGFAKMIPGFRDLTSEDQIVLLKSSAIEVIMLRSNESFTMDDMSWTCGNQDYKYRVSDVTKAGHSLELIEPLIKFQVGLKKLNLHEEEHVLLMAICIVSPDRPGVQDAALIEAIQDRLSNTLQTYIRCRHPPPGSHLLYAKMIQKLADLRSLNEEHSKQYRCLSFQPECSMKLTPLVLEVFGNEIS
UniProt Q07343: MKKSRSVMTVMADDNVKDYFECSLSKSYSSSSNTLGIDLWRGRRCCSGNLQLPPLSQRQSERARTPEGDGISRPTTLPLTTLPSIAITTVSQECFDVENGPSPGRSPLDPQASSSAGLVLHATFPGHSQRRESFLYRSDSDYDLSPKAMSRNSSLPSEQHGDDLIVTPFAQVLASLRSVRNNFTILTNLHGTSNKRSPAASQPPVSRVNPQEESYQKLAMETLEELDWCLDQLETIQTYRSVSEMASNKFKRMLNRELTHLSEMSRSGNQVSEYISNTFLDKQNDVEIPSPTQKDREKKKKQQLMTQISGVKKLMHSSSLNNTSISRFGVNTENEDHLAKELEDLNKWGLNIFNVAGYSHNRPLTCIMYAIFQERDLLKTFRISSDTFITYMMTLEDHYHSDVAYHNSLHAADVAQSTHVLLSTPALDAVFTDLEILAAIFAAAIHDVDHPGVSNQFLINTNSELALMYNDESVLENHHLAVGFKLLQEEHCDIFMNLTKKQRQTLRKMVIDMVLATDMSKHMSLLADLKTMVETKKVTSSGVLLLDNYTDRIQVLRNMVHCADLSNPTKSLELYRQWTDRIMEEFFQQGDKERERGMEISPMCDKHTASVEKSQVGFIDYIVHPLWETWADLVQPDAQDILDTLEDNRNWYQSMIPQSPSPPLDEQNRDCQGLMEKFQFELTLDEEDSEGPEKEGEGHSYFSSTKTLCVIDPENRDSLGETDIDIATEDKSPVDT
UniProt P08482: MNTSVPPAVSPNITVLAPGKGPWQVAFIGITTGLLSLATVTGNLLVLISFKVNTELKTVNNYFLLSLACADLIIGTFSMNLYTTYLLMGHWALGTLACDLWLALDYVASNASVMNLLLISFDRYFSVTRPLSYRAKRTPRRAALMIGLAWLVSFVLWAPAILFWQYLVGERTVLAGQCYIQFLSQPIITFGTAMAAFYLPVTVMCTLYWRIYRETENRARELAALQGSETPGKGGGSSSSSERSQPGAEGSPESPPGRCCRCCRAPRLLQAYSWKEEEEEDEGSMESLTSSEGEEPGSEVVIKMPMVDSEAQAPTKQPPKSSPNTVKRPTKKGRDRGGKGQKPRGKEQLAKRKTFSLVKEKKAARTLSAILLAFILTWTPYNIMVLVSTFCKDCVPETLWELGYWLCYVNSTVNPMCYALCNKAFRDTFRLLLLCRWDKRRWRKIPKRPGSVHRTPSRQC
UniProt P11712, whole entry, looked up: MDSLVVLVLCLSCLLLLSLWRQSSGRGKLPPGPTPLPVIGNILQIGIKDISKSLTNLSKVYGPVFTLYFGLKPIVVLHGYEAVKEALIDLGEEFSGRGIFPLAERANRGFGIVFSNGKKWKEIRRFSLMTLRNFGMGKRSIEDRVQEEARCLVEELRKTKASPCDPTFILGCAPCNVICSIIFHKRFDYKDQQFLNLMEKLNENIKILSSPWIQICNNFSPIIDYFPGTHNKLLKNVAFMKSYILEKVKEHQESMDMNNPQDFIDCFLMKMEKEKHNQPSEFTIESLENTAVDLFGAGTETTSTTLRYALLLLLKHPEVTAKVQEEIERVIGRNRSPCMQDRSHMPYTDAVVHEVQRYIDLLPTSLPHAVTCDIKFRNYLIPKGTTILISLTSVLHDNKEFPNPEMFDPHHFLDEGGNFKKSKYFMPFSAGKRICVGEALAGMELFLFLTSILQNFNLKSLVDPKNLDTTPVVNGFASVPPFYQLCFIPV
UniProt P10635, whole entry, looked up: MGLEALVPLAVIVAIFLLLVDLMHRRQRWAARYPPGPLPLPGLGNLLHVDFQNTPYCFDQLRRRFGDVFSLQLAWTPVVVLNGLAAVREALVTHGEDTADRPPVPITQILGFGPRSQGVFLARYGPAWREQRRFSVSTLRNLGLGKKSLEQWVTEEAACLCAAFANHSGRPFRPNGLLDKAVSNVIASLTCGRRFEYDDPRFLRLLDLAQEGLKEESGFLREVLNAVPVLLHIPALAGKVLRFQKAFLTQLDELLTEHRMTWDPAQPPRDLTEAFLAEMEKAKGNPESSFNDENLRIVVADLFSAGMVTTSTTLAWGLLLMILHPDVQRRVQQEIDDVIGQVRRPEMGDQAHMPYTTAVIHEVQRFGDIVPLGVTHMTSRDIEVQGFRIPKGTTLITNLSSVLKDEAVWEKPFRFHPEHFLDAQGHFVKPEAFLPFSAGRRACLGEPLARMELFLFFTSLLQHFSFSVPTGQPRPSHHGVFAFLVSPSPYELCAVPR

Key:
[1] = Cell Viability - LYMP2-006 (AID 978); also: % is scaled to controls: 0 for no effect and ±100 for the full control effect; nearly all actives have a fitted effect of over 60% in size
Procedure, shortened: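 Cells are seeded at 2500 per well and rested 5 hr at 37 C. Compounds are added across a concentration series for 24 hr at 37 C, after which ATP is quantified by luciferase luminescence.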

[2] = Cell Viability - LYMP2-012 (AID 982); conditions: LYMP2-012 lymphoblastoid cell viability qHTS; activity change, negative = cytotoxicity: at 92.2 µM (top of the series);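 also: cellular ATP by luciferase luminescence where a drop means cytotoxicity; cells exposed to compound for one day before reading; 0% = DMSO only and full loss = 92 µM tetraoctylammonium bromide; nearly all actives have a fitted effect of over 55% in size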
[3] = Cell Viability - LYMP2-026 (AID 989); also: % is scaled to controls: 0 for no effect and ±100 for the full control effect; nearly all actives have a fitted effect of over 50% in size
Procedure, shortened: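 Human lymphoblastoid cells (2500/well) in complete medium were preincubated 5 hr at 37 C, then exposed to compounds for 24 hr at 37 C. Cellular ATP was read by CellTiter-Glo luminescence; AC50 from Hill-equation fits of concentration-response data.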

[4] = target: Vitamin D3 receptor (Homo sapiens) (UniProt P11473); test: qHTS assay for small molecule agonists of vitamin D receptor signaling (AID 588543; calls by dose curve;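 also: 0% = DMSO basal and 100% = reference agonist control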); conditions: HEK293T VDR-UAS-bla, beta-lactamase ratio, 16 h; activation: at 76.8 µM (top of the series)
Procedure, shortened: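 Reporter cells (HEK293T, VDR-UAS-bla) were seeded in medium with 2% charcoal-stripped serum and incubated 5 h, then compounds in concentration series were added for 16 h at 37 °C. Stimulation was scaled between DMSO basal and 50 nM 1α,25-dihydroxyvitamin D3.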

[5] = qHTS assay for small molecule activators of the nuclear factor-kappa B (NF-kB) signaling pathway (AID 651749; active = well fitted activation curve with a large enough effect in the signal ratio; inconclusive = small, poorly fitted or top-dose-only effect, or a change in a side signal; the % refers to the signal ratio; also: potency is read from the fitted curve at half-maximal effect); conditions: NF-kB-bla ME-180 cells, beta-lactamase FRET ratio, 16 h; activation: hits give high values
Procedure, shortened: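 Stably transfected ME-180 line; NF-kB response element upstream of beta-lactamase. Treatment: compound or DMSO, 16 hr. Detection: fluorescent FRET substrate.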

[6] = target: Mitogen-activated protein kinase 10 (Mus musculus) (UniProt Q61831); test: JNK3 AlphaScreen Assay (AID 530; active = well fitted curve in either direction with a large enough effect, not every such curve was filed as active; inconclusive = small, poorly fitted or top-dose-only effect, or another doubt;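 also: kinase came from lysate of stimulated human HepG2 cells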; also: potency is read from the fitted curve at half-maximal effect;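 as to activity change, negative = inhibition: signal reports phosphorylation of biotinylated GST-cJun 1-79 at Ser73 with 10 µM ATP; % is scaled to controls: 0 for no effect and ±100 for the full control effect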); conditions: JNK3 lysate, c-Jun phosphorylation; activity change, negative = inhibition: at 57.1 µM (top of the series)
Procedure, shortened: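 Room-temperature AlphaScreen kinase assay; pre-activated HepG2 lysate as JNK3 source, biotin-GST-cJun(1-79) substrate, 10 uM ATP, compound 15 min preincubation.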

[7] = target: 3',5'-cyclic-AMP phosphodiesterase 4B (Homo sapiens) (UniProt Q07343); test: qHTS Assay for Inhibitors of PDE-IV (AID 607; active = well fitted activation curve with a large enough effect in the main read-out, with a control signal flat, not every such curve was filed as active; inconclusive = small, poorly fitted or top-dose-only effect, or effect the other way, or a change in a side signal; also: potency is read from the fitted curve at half-maximal effect; as to activation (PDE inhibition): % of control where 0% means no effect); conditions: HEK293 ACTOne CNG channel cells, membrane potential fluorescence; activation (PDE inhibition): at 22.9 µM (top of the series)
Procedure, shortened: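 HEK293 ACTOne cells with CNG channel (1000/well), endogenous PDE4; membrane potential dye, compounds up to 22.9 uM final. Fluorescence Ex 535/Em 590; RO 20-1724 (100 uM final) as reference.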

[8] = qHTS Assay for Identification of Small Molecule Agonists for Hypoxia Response Element Signaling Pathway (AID 914; active = well fitted activation curve with a large enough effect in the signal ratio, with a control signal flat, not every such curve was filed as active; inconclusive = small, poorly fitted or top-dose-only effect, or effect the other way, or a change in a side signal; the % refers to the signal ratio; also: potency is read from the fitted curve at half-maximal effect); conditions: ME-180 (cervical carcinoma) HRE-bla reporter, beta-lactamase ratio, CoCl2, 17 h; activation: hits give high values
Procedure, shortened: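 A beta-lactamase reporter under hypoxia response element control in ME-180 cells served as the system. Compound titrations plus EC50 CoCl2 ran 17 h at 37 degrees Celsius; AC50 values were fitted from %Activity.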

[9] = qHTS Assay for Identification of Small Molecule Antagonists for NFkB Signaling Pathway (AID 895; active = well fitted inhibition curve with a large enough effect in the signal ratio, with a control signal flat, not every such curve was filed as active; inconclusive = small, poorly fitted or top-dose-only effect, or effect the other way, or a change in a side signal; the % refers to the signal ratio; also: % is scaled to controls: 0 for no effect and ±100 for the full control effect); conditions: NFkB beta-lactamase reporter cells, FRET ratio 460/530, stimulated with 10 pM TNF alpha; activity change, negative = inhibition: at 38.3 µM (top of the series)
Procedure, shortened: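 Beta-lactamase reporter read-out (460 and 530 nm emission ratio, 405 nm excitation, 2 hrs substrate loading RT) after 5 hr stimulation with 10 pM TNF alpha in compound-treated NFkB-bla ME-180 cells in low-serum medium.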

[10] = qHTS Assay for Identification of Small Molecule Antagonists for Thrombopoietin (TPO) Signaling Pathway (AID 918); conditions: TPO-dependent cell signaling reporter, antagonist mode; activity change, negative = inhibition: at 38.5 µM (top of the series)
Procedure, shortened: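 Murine Ba/F3 cells stably expressing human TPO receptor and a Glycoprotein IIb promoter–luciferase reporter were IL-3-starved overnight, treated with compounds plus TPO (26 pM final, its EC50) for 24 hrs at 37 C, then read by luminescence.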

[11] = target: Muscarinic acetylcholine receptor M1 (Rattus norvegicus) (UniProt P08482); test: qHTS Assay for Antagonists of Acetylcholine Muscarinic M1 Receptor: Kinetic Measurement of Intracellular Calcium Response (AID 943); also: potency is read from the fitted curve at half-maximal effect; nearly all actives have a fitted effect of over 75% in size
Procedure, shortened: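 CHO cells stably expressing rat M1 were loaded with no-wash Fluo-4 dye for 1 h at 37C, pre-incubated 10 min with compound, then challenged with EC80 carbachol (100 nM final); kinetic calcium read 4 min, peak/basal ratio.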

[12] = target: Muscarinic acetylcholine receptor M1 (Rattus norvegicus) (UniProt P08482); test: qHTS Assay for Antagonists of Acetylcholine Muscarinic M1 Receptor: Measurement of IP-One Response (AID 944); also: nearly all actives have a fitted effect of over 75% in size
[13] = target: Cytochrome P450 2C9 (Homo sapiens) (UniProt P11712); test: qHTS Assay for Inhibitors and Substrates of Cytochrome P450 2C9 (AID 883); conditions: recombinant CYP2C9, luciferin-H luminescence, 60 min; activity change, negative = inhibition: at 11.4 µM (top of the series) unless noted; also: potency is read from the fitted curve at half-maximal effect; nearly all actives have a fitted effect of over 60% in size
Procedure, shortened: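 Luminescent read-out of deoxyluciferin hydroxylation, normalized to 57uM sulphaphenazole (AC100). Reaction: 10nM enzyme, 100uM Luciferin-H (equal to KM), 25mM KPO4, 10 min compound preincubation, then 60 min with NADPH regeneration, both at 37C.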

[14] = target: Cytochrome P450 2D6 (Homo sapiens) (UniProt P10635); test: qHTS Assay for Inhibitors and Substrates of Cytochrome P450 2D6 (AID 891); also: potency is read from the fitted curve at half-maximal effect; nearly all actives have a fitted effect of over 60% in size
Procedure, shortened: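 Human CYP2D6 (5 nM) with 30 uM Luciferin-ME EGE (at Km) in 100 mM KPO4, compound preincubated 10 min, then NADPH regeneration system for 60 min at room temperature. Luciferin read by luminescence; normalized to 1.43 uM quinidine.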

## Cc1ccc2ccc3cccc4ccc1c2c34
[1]
  Potency: inactive

## c1ccc(COCc2ccccc2)cc1
[2]
  Potency: inactive

## CC(C)S
[3]
  Potency: inactive
[4]
  Potency: inactive

## O=C=Nc1ccc(Cc2ccc(N=C=O)cc2)cc1
[5]
  Potency: inconclusive: 31.6 µM [side channel, falling, full curve, poor fit]

## CCc1cccc2nc3c(c([Si](CC)(CC)CC)c12)Cn1c-3cccc1=O
[6]
  Potency: inconclusive: 20 µM [activator, partial curve]
[7]
  Potency: inconclusive: 12.6 µM [activator, single point]

## CC(C)C[C@@H](CC(=O)N[C@@H](CCC(=O)O)CC(=O)O)NC(=O)[C@@H]1CCCC[C@H]1NC(=O)C[C@@H](NC(=O)C[C@H](Cc1ccccc1)NC(=O)[C@@H]1CCCC[C@H]1N)C(C)C
[6]
  Potency: inactive
[7]
  Potency: inactive

## O=C1c2ccccc2C(=O)c2c(NC3CCCCC3)ccc(Nc3ccc(S(=O)(=O)O)cc3)c21
[6]
  Potency: inconclusive: 2.51 µM [inhibitor, partial curve]
[7]
  Potency: inactive
[8]
  Potency: inconclusive: 3.16 µM [inhibitor, single point]

## COc1ccc(CCN(C)CCC[C@@](C#N)(c2cc(OC)c(OC)c(OC)c2)C(C)C)cc1OC
[6]
  activity change, negative = inhibition: inconclusive: -23.8%
[7]
  Potency: inconclusive: 12.6 µM [activator, partial curve, poor fit]
[9]
  activity change, negative = inhibition: inconclusive: -33.2%
[10]
  activity change, negative = inhibition: inconclusive: -12.3% [phenotype inactive]
[11]
  Potency: inconclusive: 5.01 µM [inhibitor, partial curve, poor fit]
[12]
  Potency: inactive

## CC(C)(C)c1onc(OCP(=O)(O)O)c1C[C@@H](N)C(=O)O
[6]
  Potency: inconclusive: 20 µM [activator, partial curve, poor fit]
[7]
  Potency: inactive
[9]
  Potency: inactive
[10]
  activity change, negative = inhibition: inconclusive: -14.7% [phenotype inactive]

## O=S(=O)(c1ccccc1)N1CCC[C@@]2(CCN(c3ccccc3)C2)C1
[6]
  Potency: inconclusive: 15.8 µM [inhibitor, partial curve]
[7]
  Potency: inconclusive: 10 µM [activator, partial curve, poor fit]
[13]
  Potency: inconclusive: 2.51 µM [inhibitor, full curve]
[8]
  Potency: inconclusive: 1.26 µM [inhibitor, partial curve]

## CN(CCc1ccccn1)c1ccc2c(c1)C(=O)c1ccccc1-2
[6]
  Potency: inconclusive: 3.16 µM [inhibitor, partial curve]
[7]
  Potency: inactive
[13]
  Potency: inconclusive: 3.16 µM [inhibitor, single point]
[14]
  Potency: inconclusive: 2.51 µM [inhibitor, partial curve]
